The results in this text go back to paper PMC2973837.

No constants are given. Whether binding was seen depends on the method and setting. Binding seen in cells or lysates may run through a third protein. Some results given as binding are weak or reduced against the parent protein; the word gives no strength. Sequences can lack the tags named with a protein.

This test concerns the target T1, HA-SRFR1 (SUPPRESSOR OF rps4-RLD1, HA-tagged, genomic clone) (Arabidopsis thaliana) (UniProt F4JS25).
T1 sequence: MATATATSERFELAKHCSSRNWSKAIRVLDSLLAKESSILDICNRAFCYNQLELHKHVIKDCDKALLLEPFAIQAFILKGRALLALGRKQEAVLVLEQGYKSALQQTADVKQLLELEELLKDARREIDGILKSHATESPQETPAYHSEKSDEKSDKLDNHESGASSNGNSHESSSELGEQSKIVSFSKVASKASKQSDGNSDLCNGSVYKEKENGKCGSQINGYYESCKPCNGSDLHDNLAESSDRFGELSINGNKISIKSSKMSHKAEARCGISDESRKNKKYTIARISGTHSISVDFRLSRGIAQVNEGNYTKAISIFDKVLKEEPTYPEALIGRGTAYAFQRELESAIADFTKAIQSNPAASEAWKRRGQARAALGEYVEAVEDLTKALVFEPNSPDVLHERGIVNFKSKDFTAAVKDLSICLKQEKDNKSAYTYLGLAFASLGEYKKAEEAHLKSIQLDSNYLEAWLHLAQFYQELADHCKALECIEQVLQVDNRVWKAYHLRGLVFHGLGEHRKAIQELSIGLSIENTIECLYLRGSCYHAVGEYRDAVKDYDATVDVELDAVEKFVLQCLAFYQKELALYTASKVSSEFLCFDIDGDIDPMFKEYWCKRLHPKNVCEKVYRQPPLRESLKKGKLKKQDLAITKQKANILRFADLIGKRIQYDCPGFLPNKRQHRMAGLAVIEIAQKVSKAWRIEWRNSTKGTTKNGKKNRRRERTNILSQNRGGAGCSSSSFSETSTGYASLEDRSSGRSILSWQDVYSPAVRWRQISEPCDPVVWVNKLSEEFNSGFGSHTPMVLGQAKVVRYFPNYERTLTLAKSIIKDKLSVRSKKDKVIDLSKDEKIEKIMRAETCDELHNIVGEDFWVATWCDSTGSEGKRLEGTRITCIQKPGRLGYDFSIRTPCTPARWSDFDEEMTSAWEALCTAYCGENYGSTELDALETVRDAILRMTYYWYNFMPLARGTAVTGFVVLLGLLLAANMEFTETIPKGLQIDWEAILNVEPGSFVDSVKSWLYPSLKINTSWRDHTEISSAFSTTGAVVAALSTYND
Kind of test: co-IP; microsomal fraction (100,000 x g pellet, resuspended in buffer H) of HA-SRFR1 transgenic N. benthamiana leaves 48 h after agroinfiltration of the Myc-tagged proteins; 1% Igepal CA-630; overnight with anti-HA or anti-Myc agarose beads; immunoblot. On the technique in general: In western blotting, separated proteins are transferred to a membrane and probed.

B1: Myc-RPS4 (genomic RPS4, Myc-tagged) (protein, UniProt Q9XGM3 1-1217)
chain: METSSISTVEDKPPQHQVFINFRGADLRRRFVSHLVTALKLNNINVFIDDYEDRGQPLDVLLKRIEESKIVLAIFSGNYTESVWCVRELEKIKDCTDEGTLVAIPIFYKLEPSTVRDLKGKFGDRFRSMAKGDERKKKWKEAFNLIPNIMGIIIDKKSVESEKVNEIVKAVKTALTGIPPEGSHNAVVGALGNSNAGTSSGDKKHETFGNEQRLKDLEEKLDRDKYKGTRIIGVVGMPGIGKTTLLKELYKTWQGKFSRHALIDQIRVKSKHLELDRLPQMLLGELSKLNHPHVDNLKDPYSQLHERKVLVVLDDVSKREQIDALREILDWIKEGKEGSRVVIATSDMSLTNGLVDDTYMVQNLNHRDSLQLFHYHAFIDDQANPQKKDFMKLSEGFVHYARGHPLALKVLGGELNKKSMDHWNSKMKKLAQSPSPNIVSVFQVSYDELTTAQKDAFLDIACFRSQDKDYVESLLASSDLGSAEAMSAVKSLTDKFLINTCDGRVEMHDLLYKFSREVDLKASNQDGSRQRRLWLHQHIIKGGIINVLQNKMKAANVRGIFLDLSEVEDETSLDRDHFINMGNLRYLKFYNSHCPQECKTNNKINIPDKLKLPLKEVRCLHWLKFPLETLPNDFNPINLVDLKLPYSEMEQLWEGDKDTPCLRWVDLNHSSKLCSLSGLSKAEKLQRLNLEGCTTLKAFPHDMKKMKMLAFLNLKGCTSLESLPEMNLISLKTLTLSGCSTFKEFPLISDNIETLYLDGTAISQLPMNMEKLQRLVVLNMKDCKMLEEIPGRVGELKALQELILSDCLNLKIFPEIDISFLNILLLDGTAIEVMPQLPSVQYLCLSRNAKISCLPVGISQLSQLKWLDLKYCTSLTSVPEFPPNLQCLDAHGCSSLKTVSKPLARIMPTEQNHSTFIFTNCENLEQAAKEEITSYAQRKCQLLSYARKRYNGGLVSESLFSTCFPGCEVPSWFCHETVGSELEVKLLPHWHDKKLAGIALCAVVSCLDPQDQVSRLSVTCTFKVKDEDKSWVAYTCPVGSWTRHGGGKDKIELDHVFIGYTSCPHTIKCHEEGNSDECNPTEASLKFTVTGGTSENGKYKVLKCGLSLVYAKDKDKNSALETKYDMLIGKSFQETSEGVDGRVKKTKGKYVMPVEKNFQETTEGVDGRVNKKKKTRMDNGRPKKKQRSGRDDNQTRMQVELQEGNINSVIMHTVKNF
As for B1, the binding entry is “binds”.
